In article PMC5017052 one finds binding data, which are given here for two substances.

Chains of the proteins cited; added tags and fusions are not shown.
UniProt Q99836: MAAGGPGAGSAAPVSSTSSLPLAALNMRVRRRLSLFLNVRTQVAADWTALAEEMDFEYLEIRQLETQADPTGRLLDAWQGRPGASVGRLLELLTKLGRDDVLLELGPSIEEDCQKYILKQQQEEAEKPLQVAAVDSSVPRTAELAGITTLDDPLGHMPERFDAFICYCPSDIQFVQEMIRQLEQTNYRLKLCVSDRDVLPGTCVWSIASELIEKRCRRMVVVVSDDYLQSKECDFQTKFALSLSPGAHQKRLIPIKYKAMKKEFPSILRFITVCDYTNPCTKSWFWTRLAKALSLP
UniProt P51617: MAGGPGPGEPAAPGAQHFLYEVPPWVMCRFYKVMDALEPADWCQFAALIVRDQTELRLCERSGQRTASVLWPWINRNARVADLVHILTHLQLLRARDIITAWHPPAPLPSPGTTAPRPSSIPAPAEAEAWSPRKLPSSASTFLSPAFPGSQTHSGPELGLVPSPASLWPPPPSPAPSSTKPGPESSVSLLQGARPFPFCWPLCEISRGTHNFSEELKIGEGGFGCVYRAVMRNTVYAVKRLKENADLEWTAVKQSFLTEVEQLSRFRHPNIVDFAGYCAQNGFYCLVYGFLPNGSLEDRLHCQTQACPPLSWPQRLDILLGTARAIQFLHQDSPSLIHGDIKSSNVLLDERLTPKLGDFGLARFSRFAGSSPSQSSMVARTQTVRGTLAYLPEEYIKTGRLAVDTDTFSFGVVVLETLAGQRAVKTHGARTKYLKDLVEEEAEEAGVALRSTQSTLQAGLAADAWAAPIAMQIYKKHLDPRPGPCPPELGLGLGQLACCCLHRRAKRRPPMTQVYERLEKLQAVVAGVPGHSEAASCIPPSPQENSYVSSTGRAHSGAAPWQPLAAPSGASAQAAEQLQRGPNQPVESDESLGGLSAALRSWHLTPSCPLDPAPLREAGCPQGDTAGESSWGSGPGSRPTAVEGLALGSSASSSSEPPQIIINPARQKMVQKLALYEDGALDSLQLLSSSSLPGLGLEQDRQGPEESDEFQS

The target of this experiment is T1, Transglutaminase 2 (human) (UniProt P21980).
T1 sequence: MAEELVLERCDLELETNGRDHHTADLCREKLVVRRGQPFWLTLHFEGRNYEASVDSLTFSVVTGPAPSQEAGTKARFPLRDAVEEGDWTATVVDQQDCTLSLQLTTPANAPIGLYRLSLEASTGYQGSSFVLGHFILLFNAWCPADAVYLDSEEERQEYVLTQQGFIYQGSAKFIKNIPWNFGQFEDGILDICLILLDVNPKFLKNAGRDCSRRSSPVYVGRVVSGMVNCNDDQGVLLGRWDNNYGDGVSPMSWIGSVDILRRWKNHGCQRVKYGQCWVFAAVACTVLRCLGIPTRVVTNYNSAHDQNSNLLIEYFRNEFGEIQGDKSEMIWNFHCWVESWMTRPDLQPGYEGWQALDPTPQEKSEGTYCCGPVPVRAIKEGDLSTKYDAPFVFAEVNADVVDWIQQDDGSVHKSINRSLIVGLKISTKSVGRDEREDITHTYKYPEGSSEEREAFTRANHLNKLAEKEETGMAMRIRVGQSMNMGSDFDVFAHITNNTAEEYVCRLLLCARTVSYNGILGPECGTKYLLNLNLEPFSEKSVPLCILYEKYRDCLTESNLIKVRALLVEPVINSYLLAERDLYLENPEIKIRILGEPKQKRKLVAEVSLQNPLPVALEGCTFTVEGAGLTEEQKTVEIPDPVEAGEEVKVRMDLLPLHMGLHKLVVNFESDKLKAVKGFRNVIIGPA
Nature of the experiment: co-IP; MCF7_TG2 cells treated with IL-1β (10 ng/ml) for 30 min; cell lysates immunoprecipitated with anti-TG2 antibody; TG2, IRAK1, TRAF6 and MyD88 detected by Western blot.

No constants are given. Whether binding was seen depends on the method and setting. Binding seen in cells or lysates may run through a third protein.

MyD88 (from UniProt Q99836 1-296): the binding entry is “no binding”.
Turning to IRAK1 (from UniProt P51617 1-712), the binding result was “no binding”.
